The other results are listed elsewhere or left out.
Tests used:
Test in all cases: glycan array binding signal (z-score within array); higher = stronger binding
Conditions in all cases: glycan notation: IUPAC condensed, linker removed
Fuc(a1-2)Gal = biological target: Fuc(a1-2)Gal
How it was run: (§1)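 Glycan array binding is given as a within-array Z-score, which can be read as non-binding when negative. The arrays, 3228 of them, came from the Consortium for Functional Glycomics database and were retained only where the protein sequence was available. Z-scores were averaged across arrays of the same protein sequence at different concentrations or buffers and across linkers.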

Fuc(a1-2)Gal(b1-3)GalNAc = biological target: Fuc(a1-2)Gal(b1-3)GalNAc
How it was run: as §1

[1] = biological target: Fuc(a1-2)Gal(b1-3)GalNAc(a1-3)[Fuc(a1-2)]Gal(b1-4)Glc
How it was run: as §1

[2] = biological target: Fuc(a1-2)Gal(b1-3)GalNAc(a1-3)[Fuc(a1-2)]Gal(b1-4)GlcNAc
How it was run: as §1

[3] = biological target: Fuc(a1-2)Gal(b1-3)GalNAc(b1-3)Gal
How it was run: as §1

[4] = biological target: Fuc(a1-2)Gal(b1-3)GalNAc(b1-3)Gal(a1-4)Gal(b1-4)Glc
How it was run: as §1

[5] = biological target: Fuc(a1-2)Gal(b1-3)GalNAc(b1-4)[Neu5Ac(a2-3)]Gal(b1-4)Glc
How it was run: as §1

Fuc(a1-2)Gal(b1-3)GlcNAc = biological target: Fuc(a1-2)Gal(b1-3)GlcNAc
How it was run: as §1

[6] = biological target: Fuc(a1-2)Gal(b1-3)GlcNAc(b1-2)Man(a1-3)[Fuc(a1-2)Gal(b1-3)GlcNAc(b1-2)Man(a1-6)]Man(b1-4)GlcNAc(b1-4)GlcNAc
How it was run: as §1

[7] = biological target: Fuc(a1-2)Gal(b1-3)GlcNAc(b1-2)Man(a1-3)[Fuc(a1-2)Gal(b1-3)GlcNAc(b1-2)Man(a1-6)]Man(b1-4)GlcNAc(b1-4)[Fuc(a1-6)]GlcNAc
How it was run: as §1

[8] = biological target: Fuc(a1-2)Gal(b1-3)GlcNAc(b1-3)Gal(b1-4)Glc
How it was run: as §1

[9] = biological target: Fuc(a1-2)Gal(b1-3)GlcNAc(b1-3)GalNAc
How it was run: as §1

[10] = biological target: Fuc(a1-2)Gal(b1-3)GlcNAc(b1-3)[Fuc(a1-2)Gal(b1-3)GlcNAc(b1-6)]GalNAc
How it was run: as §1

[11] = biological target: Fuc(a1-2)Gal(b1-3)GlcNAc(b1-3)[Gal(b1-4)GlcNAc(b1-6)]Gal(b1-4)Glc
How it was run: as §1

[12] = biological target: Fuc(a1-2)Gal(b1-3)GlcNAc(b1-3)[Neu5Ac(a2-6)Gal(b1-4)GlcNAc(b1-6)]Gal(b1-4)Glc
How it was run: as §1

[13] = biological target: Fuc(a1-2)Gal(b1-3)GlcNAc6S
How it was run: as §1

[14] = biological target: Fuc(a1-2)Gal(b1-3)[Fuc(a1-4)]GlcNAc
How it was run: as §1

[15] = biological target: Fuc(a1-2)Gal(b1-3)[Fuc(a1-4)]GlcNAc(b1-2)Man(a1-3)[Fuc(a1-2)Gal(b1-3)[Fuc(a1-4)]GlcNAc(b1-2)Man(a1-3)]Man(b1-4)GlcNAc(b1-4)GlcNAc
How it was run: as §1

[16] = biological target: Fuc(a1-2)Gal(b1-3)[Fuc(a1-4)]GlcNAc(b1-2)Man(a1-3)[Fuc(a1-2)Gal(b1-3)[Fuc(a1-4)]GlcNAc(b1-2)Man(a1-6)]Man(b1-4)GlcNAc(b1-4)[Fuc(a1-6)]GlcNAc(b1-4)[Fuc(a1-6)]GlcNAc
How it was run: as §1

[17] = biological target: Fuc(a1-2)Gal(b1-3)[Fuc(a1-4)]GlcNAc(b1-3)[Fuc(a1-3)[Gal(b1-4)]GlcNAc(b1-6)]Gal(b1-4)Glc
How it was run: as §1

[18] = biological target: Fuc(a1-2)Gal(b1-3)[Fuc(a1-4)]GlcNAc(b1-3)[Gal(b1-4)GlcNAc(b1-6)]Gal(b1-4)Glc
How it was run: as §1

[19] = biological target: Fuc(a1-2)Gal(b1-4)Fuc(a1-3)]GlcNAc(b1-2)Man(a1-3)[Fuc(a1-2)Gal(b1-4)[Fuc(a1-3)]GlcNAc(b1-2)Man(a1-6)]Man(b1-4)GlcNAc(b1-4)GlcNAc
How it was run: as §1

Fuc(a1-2)Gal(b1-4)Glc = biological target: Fuc(a1-2)Gal(b1-4)Glc
How it was run: as §1

Fuc(a1-2)Gal(b1-4)Glc6S = biological target: Fuc(a1-2)Gal(b1-4)Glc6S
How it was run: as §1

Fuc(a1-2)Gal(b1-4)GlcNAc = biological target: Fuc(a1-2)Gal(b1-4)GlcNAc
How it was run: as §1

[20] = biological target: Fuc(a1-2)Gal(b1-4)GlcNAc(b1-2)Man
How it was run: as §1

[21] = biological target: Fuc(a1-2)Gal(b1-4)GlcNAc(b1-2)Man(a1-3)[Fuc(a1-2)Gal(b1-4)GlcNAc(b1-2)Man(a1-6)]Man(b1-4)GlcNAc(b1-4)GlcNAc
How it was run: as §1

[22] = biological target: Fuc(a1-2)Gal(b1-4)GlcNAc(b1-2)Man(a1-3)[Fuc(a1-2)Gal(b1-4)GlcNAc(b1-2)Man(a1-6)]Man(b1-4)GlcNAc(b1-4)[Fuc(a1-6)]GlcNAc
How it was run: as §1

[23] = biological target: Fuc(a1-2)Gal(b1-4)GlcNAc(b1-2)[Fuc(a1-2)Gal(b1-4)GlcNAc(b1-4)]Man(a1-3)[Fuc(a1-2)Gal(b1-4)GlcNAc(b1-2)Man(a1-6)]Man(b1-4)GlcNAc(b1-4)GlcNAc
How it was run: as §1

[24] = biological target: Fuc(a1-2)Gal(b1-4)GlcNAc(b1-3)Gal(b1-4)GlcNAc
How it was run: as §1

[25] = biological target: Fuc(a1-2)Gal(b1-4)GlcNAc(b1-3)Gal(b1-4)GlcNAc(b1-2)Man(a1-3)[Fuc(a1-2)Gal(b1-4)GlcNAc(b1-3)Gal(b1-4)GlcNAc(b1-2)Man(a1-6)]Man(b1-4)GlcNAc(b1-4)GlcNAc
How it was run: as §1

[26] = biological target: Fuc(a1-2)Gal(b1-4)GlcNAc(b1-3)Gal(b1-4)GlcNAc(b1-3)Gal(b1-4)GlcNAc
How it was run: as §1

[27] = biological target: Fuc(a1-2)Gal(b1-4)GlcNAc(b1-3)GalNAc
How it was run: as §1

[28] = biological target: Fuc(a1-2)Gal(b1-4)GlcNAc(b1-3)[Fuc(a1-2)Gal(b1-4)GlcNAc(b1-6)]GalNAc
How it was run: as §1

[29] = biological target: Fuc(a1-2)Gal(b1-4)GlcNAc(b1-3)[Fuc(a1-3)[Gal(b1-4)]GlcNAc(b1-6)]Gal(b1-4)Glc
How it was run: as §1

[30] = biological target: Fuc(a1-2)Gal(b1-4)GlcNAc(b1-6)GalNAc
How it was run: as §1

[31] = biological target: Fuc(a1-2)Gal(b1-4)GlcNAc6S
How it was run: as §1

[32] = biological target: Fuc(a1-2)Gal(b1-4)[Fuc(a1-3)]GlcNAc
How it was run: as §1

[33] = biological target: Fuc(a1-2)Gal(b1-4)[Fuc(a1-3)]GlcNAc(b1-2)Man(a1-3)[Fuc(a1-2)Gal(b1-4)[Fuc(a1-3)]GlcNAc(b1-2)Man(a1-6)]Man(b1-4)GlcNAc(b1-4)[Fuc(a1-6)]GlcNAc
How it was run: as §1

[34] = biological target: Fuc(a1-2)Gal(b1-4)[Fuc(a1-3)]GlcNAc(b1-2)[Fuc(a1-2)Gal(b1-4)[Fuc(a1-3)]GlcNAc(b1-4)]Man(a1-3)[Fuc(a1-2)Gal(b1-4)[Fuc(a1-3)]GlcNAc(b1-2)Man(a1-6)]Man(b1-4)GlcNAc(b1-4)GlcNAc
How it was run: as §1

[35] = biological target: Fuc(a1-2)Gal(b1-4)[Fuc(a1-3)]GlcNAc(b1-3)Gal(b1-4)[Fuc(a1-3)]GlcNAc
How it was run: as §1

[36] = biological target: Fuc(a1-2)Gal(b1-4)[Fuc(a1-3)]GlcNAc(b1-3)Gal(b1-4)[Fuc(a1-3)]GlcNAc(b1-3)Gal(b1-4)[Fuc(a1-3)]GlcNAc
How it was run: as §1

[37] = biological target: Fuc(a1-2)Gal(b1-4)[Fuc(a1-3)]GlcNAc(b1-3)GalNAc
How it was run: as §1

[38] = biological target: Fuc(a1-2)Gal(b1-4)[Fuc(a1-3)]GlcNAc(b1-3)[Neu5Ac(a2-6)Gal(b1-4)GlcNAc(b1-6)]Gal(b1-4)Glc
How it was run: as §1

[39] = biological target: Fuc(a1-2)Gal3S(b1-4)GlcNAc
How it was run: as §1

B1: B3GalT2 (Rattus norvegicus) (protein)
chain: LMLQWRRRHCCFAKMSWNAKRSLFRTHLMGVLSLVFLFAMFLFFNHHDWLPGRPGFKENPVTYTFRGFRSTKTETNQSSLRNIWKEVVPQTLRPQTATNSNNTELSPQGVTGLENTLSANGSIYNEKGTGHPNSYHFKYIINEPEKCQEKSPFLILLIAAEPGQIEARRAIRQTWGNETLAPGIQITRIFLLGISIKLNGYLQHAIQEESIQYHDIIQQEYLDTYYNLTIKTLMGMNWVATYCPHTPYVMKTDSDMFVNTEYLIHKLLKPDLPPRHNYFTGYLMRGYAPNRNKDSKWYMPPDLYPSERYPVFCSGTGYVFSGDLAEKIFKVSLGIRRLHLEDVYVGICLAKLRVDPVPPPNEFVFNHWRVSYSSCKYSHLITSHQFQPSELIKYWNHLQQNKHNACVNAAKEKAGRYRHRKLH
- glycan array binding signal (z-score) (Fuc(a1-2)Gal): 0.694
- glycan array binding signal (z-score) (Fuc(a1-2)Gal(b1-3)GalNAc): -0.296
- glycan array binding signal (z-score) [1]: -0.857
- glycan array binding signal (z-score) [2]: 0.065
- glycan array binding signal (z-score) [3]: -0.654
- glycan array binding signal (z-score) [4]: -0.34
- glycan array binding signal (z-score) [5]: -0.823
- glycan array binding signal (z-score) (Fuc(a1-2)Gal(b1-3)GlcNAc): 0.359
- glycan array binding signal (z-score) [6]: -0.541
- glycan array binding signal (z-score) [7]: -0.726
- glycan array binding signal (z-score) [8]: -0.126
- glycan array binding signal (z-score) [9]: 0.734
- glycan array binding signal (z-score) [10]: 0.154
- glycan array binding signal (z-score) [11]: -0.899
- glycan array binding signal (z-score) [12]: -0.965
- glycan array binding signal (z-score) [13]: -0.012
- glycan array binding signal (z-score) [14]: -0.163
- glycan array binding signal (z-score) [15]: -0.761
- glycan array binding signal (z-score) [16]: -0.602
- glycan array binding signal (z-score) [17]: -1.1
- glycan array binding signal (z-score) [18]: -1.07
- glycan array binding signal (z-score) [19]: -1.01
- glycan array binding signal (z-score) (Fuc(a1-2)Gal(b1-4)Glc): -0.322
- glycan array binding signal (z-score) (Fuc(a1-2)Gal(b1-4)Glc6S): 0.2
- glycan array binding signal (z-score) (Fuc(a1-2)Gal(b1-4)GlcNAc): 1.14
- glycan array binding signal (z-score) [20]: -0.797
- glycan array binding signal (z-score) [21]: -0.782
- glycan array binding signal (z-score) [22]: -0.933
- glycan array binding signal (z-score) [23]: -1.07
- glycan array binding signal (z-score) [24]: -0.829
- glycan array binding signal (z-score) [25]: -0.999
- glycan array binding signal (z-score) [26]: -0.684
- glycan array binding signal (z-score) [27]: 0.324
- glycan array binding signal (z-score) [28]: 1.35
- glycan array binding signal (z-score) [29]: -0.549
- glycan array binding signal (z-score) [30]: 1.19
- glycan array binding signal (z-score) [31]: 0.505
- glycan array binding signal (z-score) [32]: 0.535
- glycan array binding signal (z-score) [33]: -1.03
- glycan array binding signal (z-score) [34]: -0.914
- glycan array binding signal (z-score) [35]: 0.657
- glycan array binding signal (z-score) [36]: 0.395
- glycan array binding signal (z-score) [37]: -0.501
- glycan array binding signal (z-score) [38]: -0.837
- glycan array binding signal (z-score) [39]: 1.19

Source: the supplement of paper PMC8728848
